Values of other authors in patent US12233109B2, “Long-acting GLP-1r agonist as a therapy of neurological and neurodegenerative conditions” (The Johns Hopkins University, priority 2015, dated 2025).
At least one structure is not confirmed: it was looked up by name or label, or the drawing left a doubt.

Assays:
AD patients = conditions: long-term treatment
2×Tg AD models = conditions: once daily injection, long-term treatment

In the case of `CCCCCCCCCCCCCCCC(=O)N[C@@H](CCC(=O)NCCCC[C@H](NC(=O)[C@H](C)NC(=O)[C@H](C)NC(=O)[C@H](CCC(N)=O)NC(=O)CNC(=O)[C@H](CCC(=O)O)NC(=O)[C@H](CC(C)C)NC(=O)[C@H](Cc1ccc(O)cc1)NC(=O)[C@H](CO)NC(=O)[C@H](CO)NC(=O)[C@@H](NC(=O)[C@H](CC(=O)O)NC(=O)[C@H](CO)NC(=O)[C@@H](NC(=O)[C@H](Cc1ccccc1)NC(=O)[C@@H](NC(=O)CNC(=O)[C@H](CCC(=O)O)NC(=O)[C@H](C)NC(=O)[C@@H](N)Cc1cnc[nH]1)[C@@H](C)O)[C@@H](C)O)C(C)C)C(=O)N[C@@H](CCC(=O)O)C(=O)N[C@@H](Cc1ccccc1)C(=O)N[C@H](C(=O)N[C@@H](C)C(=O)N[C@@H](Cc1c[nH]c2ccccc12)C(=O)N[C@@H](CC(C)C)C(=O)N[C@H](C(=O)N[C@@H](CCCNC(=N)N)C(=O)NCC(=O)N[C@@H](CCCNC(=N)N)C(=O)NCC(=O)O)C(C)C)[C@@H](C)CC)C(=O)O` [liraglutide], the cognitive scores (AD patients) is given as “failed to change cognitive scores” and the β-amyloid plaque load (2×Tg AD models) is given as “no effect”.
